Test system: MYC2-GST + GAME9-HIS
Experiment: pull-down
Settings: GAME9 pulled down only in the presence of MYC2; pull-down: 10 mM HEPES pH 7.9, 100 mM KCl, 5 mM MgCl2, 10% glycerol, 1 mM DTT, 0.5% NP-40, 4 C overnight; recombinant protein; protein details: GST (pGEX-4T-1),His (pET28a); label: 5'-biotin; probe letters rebuilt from the primers and the genome

Q: Does “ACAGCTACATTATATTTTTGTATATTGCTAAATGACGAAAAAATTTAATCAGATTAGAAAATGAAAAAATTATAATATTTATTTTATCTTAAAATAAATTAATCTTTTTTCTATTTTTAATTAAAAAGATAAAAATATTTAAAATAATAAAATAATAGAGTAAAATATCATTCTAAAATAGTATAAATAAAATATTATTCCGACCCAATTCTTATTAAATTTTCTAGTTATAAAGATTTTTCATATCTATAGCACCTCACAATAATTTAAACGAATTTTGCACACGTTTATTTATGTTGGACAGCTATATTTTCAAAAAATAAAGCTACATTATCTTTTTTTCTATTGTTTCTGAGGACCAAATGATTATTTATTTTATTAAAGAAAATCCAAAAAGATAGATGTATATAGTACAATAAAGCCGAGAAGAAATAATCTTTATCAGATGGAGACAGGGCATATCTAGGAGGTTTATTACCACTAATGGATCAAAATAAATAATTGTCGAAT (double strand) [GE1-3]” bind?
A: binds

Reference: publication PMC10991328, “A distal enhancer guides the negative selection of toxic glycoalkaloids during tomato domestication”
